Test results: paper PMC3795061
Residue numbers refer to the chain shown, from its start. These are yes or no findings as the source states them, for the method shown. Some entries that bind do so weakly or less than the wild type. For some of these results: Where a sequence is shown, tags or fusion partners need not be part of it.

Experiments:
Experiment in all cases: far-Western, overlay or dot blot; 10 ug of each E. coli Rosetta extract on 12% SDS-PAGE, transferred to nitrocellulose, overlaid with 25 pmol/mL purified PPP1CC1 for 1 hr; bound PPP1CC1 detected with CBC3C (anti-PPP1CC), normalised to anti-His signal and compared with pET-TCTEX1D4; triplicates; only the binder purified
[1] = biological target: T1, TCTEX1D4 HA mutant (human) (UniProt Q5JR98)
T1 sequence: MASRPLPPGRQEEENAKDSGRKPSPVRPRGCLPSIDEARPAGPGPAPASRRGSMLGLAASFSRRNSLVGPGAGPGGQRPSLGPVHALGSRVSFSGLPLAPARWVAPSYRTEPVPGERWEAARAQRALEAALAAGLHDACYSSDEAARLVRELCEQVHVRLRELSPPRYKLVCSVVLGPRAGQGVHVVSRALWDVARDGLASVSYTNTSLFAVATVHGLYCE

[2] = biological target: T2, TCTEX1D4 HA+INL mutant (human) (UniProt Q5JR98)
T2 sequence: T1 sequence with V91I, S92N, F93L

[3] = biological target: T3, TCTEX1D4 INL mutant (human) (UniProt Q5JR98)
T3 sequence: T1 sequence with H85P, A86P, V91I, S92N, F93L

[4] = biological target: T4, wild type human TCTEX1D4 (pET-TCTEX1D4) (human) (UniProt Q5JR98)
T4 sequence: T1 sequence with H85P, A86P

Measured: binding

PPP1C gamma 1 isoform (PPP1CC1) (from UniProt P36873-1 1-323) (enzyme)
binds: [1] | [2] | [3] | [4]
